According to publication PMC4825978, “A Hox Transcription Factor Collective Binds a Highly Conserved Distal-less cis-Regulatory Module to Generate Robust Transcriptional Outcomes”:
Results are given in words; binding and its absence hold for the method and conditions named. In cells and extracts the contact can be indirect. Binding can be weak; no strength is given. Where a sequence is shown, tags or fusion partners need not be part of it.

B1: untagged Exd (Extradenticle) (protein, UniProt P40427 1-376)
chain: MEDPNRMLAHTGGMMAPQGYGLSGQDDGQNAGSENEVRKQKDIGEILQQIMSISEQSLDEAQARKHTLNCHRMKPALFSVLCEIKEKTVLSIRNTQEEEPPDPQLMRLDNMLIAEGVAGPEKGGGGAAAASAAAASQGGSLSIDGADNAIEHSDYRAKLAQIRQIYHQELEKYEQACNEFTTHVMNLLREQSRTRPITPKEIERMVQIIHKKFSSIQMQLKQSTCEAVMILRSRFLDARRKRRNFSKQASEILNEYFYSHLSNPYPSEEAKEELARKCGITVSQVSNWFGNKRIRYKKNIGKAQEEANLYAAKKAAGASPYSMAGPPSGTTTPMMSPAPPQDSMGYPMGSGGYDQQQPYDNSMGGYDPNLHQDLSP
B2: Hth of the his-Exd51A/Hth heterodimer (protein, UniProt O46339 1-487)
chain: MAQPRYDDGLHGYGMDSGAAAAAMYDPHAGHRPPGLQGLPSHHSPHMTHAAAAAATVGMHGYHSGAGGHGTPSHVSPVGNHLMGAIPEVHKRDKDAIYEHPLFPLLALIFEKCELATCTPREPGVQGGDVCSSESFNEDIAMFSKQIRSQKPYYTADPEVDSLMVQAIQVLRFHLLELEKVHELCDNFCHRYISCLKGKMPIDLVIDERDTTKPPELGSANGEGRSNADSTSHTDGASTPDVRPPSSSLSYGGAMNDDARSPGAGSTPGPLSQQPPALDTSDPDGKFLSSLNPSELTYDGRWCRREWSSPADARNADASRRLYSSVFLGSPDNFGTSASGDASNASIGSGEGTGEEDDDASGKKNQKKRGIFPKVATNILRAWLFQHLTHPYPSEDQKKQLAQDTGLTILQVNNWFINARRRIVQPMIDQSNRAVYTPHPGPSGYGHDAMGYMMDSQAHMMHRPPGDPGFHQGYPHYPPAEYYGQHL

Key:
[1] = molecular target: his-Hth∆HD (homeodomain-less Homothorax) (Drosophila); experiment: co-purification; heterodimers purified from BL21 cells as previously described, one subunit His-tagged; confirmed by SDS-PAGE and Coomassie blue staining
[2] = molecular target: his-Exd51A (Exd with homeodomain mutation N51A) (Drosophila); experiment: as above

| Binder | binding [1] | binding [2] |
| --- | --- | --- |
| B1 | binds |  |
| B2 |  | binds |
